According to patent US8828928B2, “Amphiphilic peptides and peptide particles” (President and Fellows of Harvard College, priority 2011, dated 2014):
Results are given in words; binding and its absence hold for the method and conditions named. Some results given as binding are weak or reduced against the parent protein; the word gives no strength.

Amino acid sequences for entries named in this document (tags omitted). Residues count along the entry.
UniProt Q07891: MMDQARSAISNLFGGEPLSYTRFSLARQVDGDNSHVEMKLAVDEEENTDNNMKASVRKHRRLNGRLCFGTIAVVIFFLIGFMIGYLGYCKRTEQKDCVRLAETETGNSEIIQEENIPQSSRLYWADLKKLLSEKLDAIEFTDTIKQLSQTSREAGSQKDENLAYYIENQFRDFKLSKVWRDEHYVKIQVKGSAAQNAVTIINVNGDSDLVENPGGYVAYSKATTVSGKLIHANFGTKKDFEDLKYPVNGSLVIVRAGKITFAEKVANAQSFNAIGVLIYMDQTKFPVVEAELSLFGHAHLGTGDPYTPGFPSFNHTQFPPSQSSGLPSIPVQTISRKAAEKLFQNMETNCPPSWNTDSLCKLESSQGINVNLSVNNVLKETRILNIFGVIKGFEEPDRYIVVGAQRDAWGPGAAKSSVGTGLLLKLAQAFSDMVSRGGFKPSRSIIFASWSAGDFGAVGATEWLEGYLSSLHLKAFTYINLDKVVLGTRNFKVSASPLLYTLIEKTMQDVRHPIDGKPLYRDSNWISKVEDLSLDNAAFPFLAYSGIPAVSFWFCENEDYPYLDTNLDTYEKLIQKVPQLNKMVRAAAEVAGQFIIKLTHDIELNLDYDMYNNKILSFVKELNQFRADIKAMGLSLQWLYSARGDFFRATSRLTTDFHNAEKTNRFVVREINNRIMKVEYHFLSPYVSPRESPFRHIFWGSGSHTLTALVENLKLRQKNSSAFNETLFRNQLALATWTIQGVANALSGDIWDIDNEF
UniProt P02787, residues 20-698: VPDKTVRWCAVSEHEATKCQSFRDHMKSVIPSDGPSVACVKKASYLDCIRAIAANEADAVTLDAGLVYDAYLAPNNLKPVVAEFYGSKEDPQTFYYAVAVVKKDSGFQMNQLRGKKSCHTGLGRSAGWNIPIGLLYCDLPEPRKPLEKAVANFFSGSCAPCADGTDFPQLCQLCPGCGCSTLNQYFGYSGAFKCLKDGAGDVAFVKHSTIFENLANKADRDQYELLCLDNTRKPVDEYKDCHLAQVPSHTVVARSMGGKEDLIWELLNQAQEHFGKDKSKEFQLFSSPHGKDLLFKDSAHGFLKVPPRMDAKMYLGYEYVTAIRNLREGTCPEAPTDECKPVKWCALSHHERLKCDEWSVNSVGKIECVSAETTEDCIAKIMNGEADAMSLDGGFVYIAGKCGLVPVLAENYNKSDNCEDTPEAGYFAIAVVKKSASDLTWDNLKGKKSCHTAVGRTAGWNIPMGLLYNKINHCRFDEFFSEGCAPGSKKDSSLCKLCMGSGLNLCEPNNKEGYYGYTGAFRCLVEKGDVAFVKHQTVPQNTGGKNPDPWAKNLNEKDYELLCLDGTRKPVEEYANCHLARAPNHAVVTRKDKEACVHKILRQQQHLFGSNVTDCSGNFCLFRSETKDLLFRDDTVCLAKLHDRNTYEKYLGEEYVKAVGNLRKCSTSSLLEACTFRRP

Tests used:
[1] = target: transferrin receptor (TfR) on Chinese hamster ovary (CHO) cells (Chinese hamster (CHO cells)) (UniProt Q07891); assay: fluorescence microscopy of CHO cells
[2] = target: transferrin receptor (TfR) on Chinese hamster ovary (CHO) cells (Chinese hamster (CHO cells)) (UniProt Q07891); assay: summary of the cell experiments of Example 4
[3] = target: transferrin receptor (TfR) on Chinese hamster ovary (CHO) cells (Chinese hamster (CHO cells)) (UniProt Q07891); assay: fluorescence microscopy of CHO cells incubated 1 h with the particles (figure legend)
[4] = target: transferrin receptor (TfR) on Chinese hamster ovary (CHO) cells (Chinese hamster (CHO cells)) (UniProt Q07891); assay: fluorescence microscopy, PNP counts per cell on CHO and TRVb cells with or without Tfn competition

Measured: binding

Tfn-AF568 (transferrin labeled with Alexa Fluor 568), as the corona of CD3ac peptide nanoparticles PNPFlutax-2^Tfn-AF568 (from UniProt P02787 20-698) (ligand)
binds: all assays above
